Measured values: paper PMC3097235
Results are given in words; binding and its absence hold for the method and conditions named. Binding seen in cells or lysates may run through a third protein. Some binding calls cover weakened binding; strength is not graded here. Where a sequence is shown, tags or fusion partners need not be part of it.

Assays:
Assay in all cases: co-IP; HEK 293 cells co-transfected with tyrosinase constructs and EDEM1, pulse-chased for 20 min; lysates precipitated with T311 anti-tyrosinase antibodies; autoradiography
[1] = target: T1, human tyrosinase N-glycosylation mutant Δ4 (N230Q) (human) (UniProt P14679)
T1 sequence: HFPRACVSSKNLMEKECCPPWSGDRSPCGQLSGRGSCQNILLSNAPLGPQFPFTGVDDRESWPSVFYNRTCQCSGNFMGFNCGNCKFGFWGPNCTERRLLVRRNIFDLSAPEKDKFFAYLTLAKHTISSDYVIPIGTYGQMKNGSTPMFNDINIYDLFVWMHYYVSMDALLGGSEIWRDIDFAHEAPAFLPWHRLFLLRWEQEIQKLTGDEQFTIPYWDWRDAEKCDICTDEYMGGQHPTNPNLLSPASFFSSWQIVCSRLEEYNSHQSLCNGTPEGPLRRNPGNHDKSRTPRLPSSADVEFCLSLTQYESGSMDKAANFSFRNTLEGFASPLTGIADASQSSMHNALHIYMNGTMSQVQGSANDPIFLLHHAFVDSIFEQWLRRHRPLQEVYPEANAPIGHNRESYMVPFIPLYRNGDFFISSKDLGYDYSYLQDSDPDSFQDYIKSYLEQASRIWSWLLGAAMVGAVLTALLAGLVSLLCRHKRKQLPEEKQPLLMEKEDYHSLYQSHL

[2] = target: T2, human tyrosinase N-glycosylation mutant Δ5 (N290Q) (human) (UniProt P14679)
T2 sequence: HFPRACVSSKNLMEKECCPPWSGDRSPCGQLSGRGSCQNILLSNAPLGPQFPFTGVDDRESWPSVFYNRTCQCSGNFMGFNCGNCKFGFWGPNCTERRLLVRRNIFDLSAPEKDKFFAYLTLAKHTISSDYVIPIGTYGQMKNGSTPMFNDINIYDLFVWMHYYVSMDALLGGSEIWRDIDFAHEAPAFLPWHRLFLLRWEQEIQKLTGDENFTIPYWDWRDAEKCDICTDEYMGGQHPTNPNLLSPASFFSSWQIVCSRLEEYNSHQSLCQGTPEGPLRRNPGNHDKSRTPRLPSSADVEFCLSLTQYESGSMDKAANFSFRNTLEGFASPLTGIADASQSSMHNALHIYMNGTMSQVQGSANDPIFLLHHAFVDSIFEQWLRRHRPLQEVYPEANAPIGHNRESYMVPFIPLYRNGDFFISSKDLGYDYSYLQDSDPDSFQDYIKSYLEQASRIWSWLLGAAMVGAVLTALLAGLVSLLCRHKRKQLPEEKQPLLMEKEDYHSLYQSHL

[3] = target: T3, wild type human tyrosinase (human) (UniProt P14679)
T3 sequence: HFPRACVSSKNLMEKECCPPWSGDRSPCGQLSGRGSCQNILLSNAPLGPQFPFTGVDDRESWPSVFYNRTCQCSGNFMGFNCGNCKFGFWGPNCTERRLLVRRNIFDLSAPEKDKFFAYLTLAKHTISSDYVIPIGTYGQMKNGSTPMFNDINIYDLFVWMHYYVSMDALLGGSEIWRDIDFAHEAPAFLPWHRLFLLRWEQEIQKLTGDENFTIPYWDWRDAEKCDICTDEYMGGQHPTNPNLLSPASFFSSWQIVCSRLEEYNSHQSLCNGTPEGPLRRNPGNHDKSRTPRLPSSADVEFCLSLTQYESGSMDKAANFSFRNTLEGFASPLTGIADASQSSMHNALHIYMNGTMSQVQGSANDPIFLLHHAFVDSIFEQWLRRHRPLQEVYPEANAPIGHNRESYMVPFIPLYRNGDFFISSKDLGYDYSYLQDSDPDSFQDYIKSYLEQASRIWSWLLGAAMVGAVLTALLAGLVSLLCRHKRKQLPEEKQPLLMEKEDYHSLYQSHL

Measured: binding

B1: mouse EDEM fused to an HA-tag (protein, UniProt Q925U4 1-652)
chain: MQWRALVLGLVLLRLGLHAVLWLVFGLGPSMGFYQRFPLSFGFQRLRDPDGSGPVGPPGGPAWLHRPRRGTEGRLETPPEPGPTPGPGVCGPAHWGYALGGGGCGPDEYERRYSGAFPPQLRAQMRDLARGMFVFGYDNYMAHAFPQDELNPIYCRGRGPDRGDPSNLNINDVLGNYSLTLVDALDTLAIMGNSSEFQKAVKLVINTVSFDKDSTVQVFEATIRVLGSLLSAHRIITDSKQPFGDMTIEDYDNELLYMAHDLAVRLLPAFENTKTGIPYPRVNLKTGVPPDSNNETCTAGAGSLLVEFGILSRLLGDSTFEWVARRAVKALWNLRSNDTGLLGNVVNIQTGHWVGKQSGLGAGLDSFYEYLLKSYILFGEKEDLEMFNAAYQSIQSYLRRGREACNEGEGDPPLYVNVNMFSGQLMNTWIDSLQAFFPGLQVLIGDVEDAICLHAFYYAIWKRYGALPERYNWQLQAPDVLFYPLRPELVESTYLLYQATKNPFYLHVGMDILQSLEKYTKVKCGYATLHHVIDKSKEDRMESFFLSETCKYLYLLFDEENPVHKSGTRYMFTTEGHIISVDKRLRELPWKEFFSEDGERDQEEKFVHRPKSQELRVINSSSNCNRVPDERRYSLPLKSIYMRQIDQMVGLI
binds: all assays above
